No constants are given. Whether binding was seen depends on the method and setting. Some binding calls cover weakened binding; strength is not graded here.
Target: GST-PRRC2B 1-600 (human) (UniProt Q5JSZ5)
Experiment: pull-down

Amino acid sequences for entries named in this document (tags omitted). Residues count along the entry.
UniProt Q5JSZ5, residues 1-600: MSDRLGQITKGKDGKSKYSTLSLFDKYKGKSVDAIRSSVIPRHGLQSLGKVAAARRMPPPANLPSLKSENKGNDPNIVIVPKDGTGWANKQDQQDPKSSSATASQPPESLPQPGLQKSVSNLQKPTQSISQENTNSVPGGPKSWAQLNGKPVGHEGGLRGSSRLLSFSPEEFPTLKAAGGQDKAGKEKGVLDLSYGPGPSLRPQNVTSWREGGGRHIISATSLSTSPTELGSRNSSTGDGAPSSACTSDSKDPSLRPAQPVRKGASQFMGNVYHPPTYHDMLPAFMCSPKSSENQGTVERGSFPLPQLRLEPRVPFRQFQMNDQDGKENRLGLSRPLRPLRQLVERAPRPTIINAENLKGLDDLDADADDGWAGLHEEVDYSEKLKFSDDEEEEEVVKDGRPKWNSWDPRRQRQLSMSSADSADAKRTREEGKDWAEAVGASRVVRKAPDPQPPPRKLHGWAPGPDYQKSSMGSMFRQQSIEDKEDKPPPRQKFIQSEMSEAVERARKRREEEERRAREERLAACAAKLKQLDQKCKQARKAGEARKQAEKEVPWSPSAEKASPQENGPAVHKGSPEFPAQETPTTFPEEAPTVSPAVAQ
eIF4G2 N-terminal fragment (1-323 aa) (P78344, residues 1-323): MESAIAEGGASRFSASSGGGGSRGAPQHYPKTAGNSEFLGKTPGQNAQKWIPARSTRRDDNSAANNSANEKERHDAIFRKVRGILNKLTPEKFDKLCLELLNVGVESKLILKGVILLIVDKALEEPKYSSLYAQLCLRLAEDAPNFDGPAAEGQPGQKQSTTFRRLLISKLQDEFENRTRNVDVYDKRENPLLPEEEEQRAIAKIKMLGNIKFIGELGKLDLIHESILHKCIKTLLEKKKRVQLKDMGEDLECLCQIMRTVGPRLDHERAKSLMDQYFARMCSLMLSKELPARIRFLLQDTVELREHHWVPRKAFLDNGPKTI
eIF4G2 C-terminal fragment (545-890 aa) (P78344, residues 545-890): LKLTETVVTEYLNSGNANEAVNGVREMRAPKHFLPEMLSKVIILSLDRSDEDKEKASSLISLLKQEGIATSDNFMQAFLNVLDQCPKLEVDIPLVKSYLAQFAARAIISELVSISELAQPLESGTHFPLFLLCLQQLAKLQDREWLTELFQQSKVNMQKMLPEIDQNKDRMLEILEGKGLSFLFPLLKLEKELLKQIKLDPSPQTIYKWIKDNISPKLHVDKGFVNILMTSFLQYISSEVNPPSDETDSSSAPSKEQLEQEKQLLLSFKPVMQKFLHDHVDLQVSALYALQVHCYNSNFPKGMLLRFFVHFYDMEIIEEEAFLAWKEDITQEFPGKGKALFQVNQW

Substance | binding
eIF4G2 C-terminal fragment (545-890 aa) (from UniProt P78344 545-890) (domain or fragment) | binds
eIF4G2 N-terminal fragment (1-323 aa) (from UniProt P78344 1-323) (domain or fragment) | no binding

Reference: publication doi:10.1101/2024.09.26.24313895
